Counter-ions that a name gives are not always drawn. The list shows a part of the results. Most values come without repeats; read them as rough.
Legend:
[1] = tested on: MIA PaCa-2 parental; test: parental cell viability relative to untreated parental control; higher = more surviving cells; settings: treatment time: 9 days
[2] = tested on: MIA PaCa-2 persister; test: persister cell viability relative to untreated persister control; higher = more surviving persister cells; settings: treatment time: 9 days; cell state: persister (100 nM gemcitabine + 100 nM Torin1)

Compound	parental cell viability [1] [%]	persister cell viability [2] [%]
O=c1[nH]c2ccc(Cl)cc2c(N[C@@H]2CN3CCC2CC3)c1-c1nc2ccccc2[nH]1 (inhibitor concentration: 30nM)	101	5
C=C1[C@@H](O)[C@@H]2O[C@]3(CC[C@H](/C=C/[C@@H](C)[C@@H]4CC(C)=C[C@@]5(O[C@H](C[C@@](C)(O)C(=O)O)CC[C@H]5O)O4)O3)CC[C@H]2O[C@@H]1[C@@H](O)C[C@H](C)[C@H]1O[C@@]2(CCCCO2)CC[C@H]1C [Okadaic Acid] (inhibitor concentration: 5nM)	100	5
C=C(C)[C@H]1Cc2c(ccc3c2O[C@@H]2COc4cc(OC)c(OC)cc4[C@@H]2C3=O)O1 [Rotenone] (inhibitor concentration: 100nM)	70	60
CO/C1=C\C(C)=C\[C@@H](C)[C@@H](O)[C@@H](C)C/C(C)=C/C=C/[C@H](OC)[C@@H]([C@@H](C)[C@@H](O)[C@H](C)[C@@]2(O)C[C@@H](O)[C@H](C)[C@@H](C(C)C)O2)OC1=O [Bafilomycin A1] (inhibitor concentration: 2nM)	70	10
c1ccc([C@@H]2C[C@H]2NC2CCNCC2)cc1 [GSK-LSD1 (hydrochloride)] (inhibitor concentration: 30µM)	93	109
O=C(O)c1sc2cc(Cl)ccc2c1Cl [3,6-dichloro-benzo[b]  thiophene-2-Carboxylic Acid] (inhibitor concentration: 30µM)	100	104
O=c1[nH]c2ccccc2n1C1CCN(Cc2ccc(-c3[nH]c4cc5ncnc5cc4nc3-c3ccccc3)cc2)CC1 [Akt Inhibitor VIII] (inhibitor concentration: 10µM)	18	55
C/C=C(\C)[C@H](O)[C@H](C)/C=C(C)/C=C/C/C(C)=C/Cc1nc(OC)c(OC)c(O)c1C [Piericidin A] (inhibitor concentration: 10µM)	101	101
CCNC(=O)C[C@@H]1N=C(c2ccc(Cl)cc2)c2cc(OC)ccc2-n2c(C)nnc21 (inhibitor concentration: 1µM)	100	25
